Patent US20260007679A1, “METHODS OF TREATING CANCER USING 3-(4-((4-(MORPHOLINOMETHYL)BENZYL)OXY)-1-OXOISOINDOLIN-2-YL)PIPERIDINE-2,6-DIONE” (Celgene Corporation, priority 2012, published 2026)
Some entries share one result that the patent states for a list of compounds.

System: Human umbilical vascular endothelial cells
Test: Growth factor-induced HUVEC proliferation assay
Type: cell-based
Details: bFGF-treated HUVECs
Procedure: Human Umbilical Vascular Endothelial Cells Proliferation Assay: Human umbilical vascular endothelial cells were thawed and grown in EGM2 medium until passage 3 to 6 for all proliferation assays. Human umbilical vascular endothelial cells were trypsinized, washed with 20% FBS/M199 medium and plated with the same medium at 10^4 cells/100 μL per well to 96-well cell culture plates. The plates were incubated overnight at 37° C. to allow cells to adhere. The cells were then starved in 1% FBS/M199 medium for 18 hours after washing with the same medium 3 times. […] Thymidine incorporation was measured by adding one microcurie of 3H-thymidine (Amersham) in 20 μL medium to each well and incubated at 37° C. in a humidified cell culture incubator with 5% CO2 for 5 to 6 hours. […] After the plates were air dried, 20 μL/well of Microscint 20 (Packard) was added then the plates were analyzed in TopCount NXT (Packard). Each well was counted for one minute. […]
The percentage inhibition of cell proliferation, tube formation, migration, and invasion was calculated by subtracting the result for unstimulated DMSO control from test sample results, averaging all replicates, and normalizing to the growth factor-stimulated DMSO control (0% inhibition). The IC50 values were calculated by using GraphPad Prism 5.0.

## O=C1CC[C@@H](N2Cc3c(OCc4ccc(CN5CCOCC5)cc4)cccc3C2=O)C(=O)N1 [Compound I-R, (R)-3-(4-((4-(morpholinomethyl)benzyl)oxy)-1-oxoisoindolin-2-yl)piperidine-2,6-dione]
  concentrations with significant enhancement of proliferation: 0.1 to 1 µM
